Laboratory results: patent US20210355175A1 (University of Washington, published 2021)
These are yes or no findings as the source states them, for the method shown. For some assays here: Binding seen in cells or lysates may run through a third protein. Some binding calls cover weakened binding; strength is not graded here. Sequences can lack the tags named with a protein.

Key:
[1] = biological target: T1, DHD13-37 chain 37a, hexahistidine-TEV tagged; experiment: co-purification on Ni-NTA after co-expression in E. coli (induced dimerization, DHD13-37)
T1 sequence: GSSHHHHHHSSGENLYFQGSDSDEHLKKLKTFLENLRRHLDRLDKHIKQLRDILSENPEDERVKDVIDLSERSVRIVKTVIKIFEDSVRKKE

[2] = biological target: T2, DHD13-37 chain 13a; experiment: as above
T2 sequence: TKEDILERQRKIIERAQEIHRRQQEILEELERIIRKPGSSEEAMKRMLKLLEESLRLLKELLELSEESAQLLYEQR

[3] = biological target: T3, DHDSC_9-13-37 chain 37b, hexahistidine-TEV tagged; experiment: co-expression in E. coli, one b monomer His-tagged
T3 sequence: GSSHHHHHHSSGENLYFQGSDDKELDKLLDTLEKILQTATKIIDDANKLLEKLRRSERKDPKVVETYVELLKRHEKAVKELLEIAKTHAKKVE

[4] = biological target: T3, DHDSC_9-13-37 chain 37b, hexahistidine-TEV tagged; experiment: size exclusion chromatography
[5] = biological target: T4, DHD9 chain b; experiment: co-purification on Ni-NTA after co-expression in E. coli (induced dimerization, DHD9-13)
T4 construct: also called 9b; 9_b
T4 chain: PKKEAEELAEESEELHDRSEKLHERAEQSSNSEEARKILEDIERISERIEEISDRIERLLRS

[6] = biological target: T5, DHD9-13 chain 13b, hexahistidine-TEV tagged; experiment: as above
T5 sequence: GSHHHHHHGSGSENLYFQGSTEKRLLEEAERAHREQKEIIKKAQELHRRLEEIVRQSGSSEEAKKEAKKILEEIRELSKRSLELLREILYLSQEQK

[7] = biological target: T6, DHD15-37 chain 15a; experiment: co-purification on Ni-NTA after co-expression in E. coli (induced dimerization, DHD15-37)
T6 sequence: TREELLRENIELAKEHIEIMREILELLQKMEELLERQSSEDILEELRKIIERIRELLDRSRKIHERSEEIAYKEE

[8] = biological target: T7, DHD15-37 chain 37b, hexahistidine-TEV tagged; experiment: as above
T7 sequence: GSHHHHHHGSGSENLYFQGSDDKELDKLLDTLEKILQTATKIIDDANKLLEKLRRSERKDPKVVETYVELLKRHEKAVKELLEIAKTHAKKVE

B1: DHD13-37 fusion, chain 13b-37b (designed binder)
chain: TEKRLLEEAERAHREQKEIIKKAQELHRRLEEIVRQSGSSEEAKKEAKKILEEIRELSKRSLELLREILYLSQEQKGSEGSGSEGSGSDDKELDKLLDTLEKILQTATKIIDDANKLLEKLRRSERKDPKVVETYVELLKRHEKAVKELLEIAKTHAKKVE
[1]
  binding: binds
[2]
  binding: binds

B2: DHDSC_9-13-37 scaffold, chain 9a-13a-37a (designed binder)
chain: PKEEARELIRKQKELIKEQKKLIKEAKQKSDSRDAERIWKRSREINRESKKINKRIKELIKSGSEGSGSEGSGSTKEDILERQRKIIERAQEIHRRQQEILEELERIIRKPGSSEEAMKRMLKLLEESLRLLKELLELSEESAQLLYEQRGSEGSGSEGSGSDSDEHLKKLKTFLENLRRHLDRLDKHIKQLRDILSENPEDERVKDVIDLSERSVRIVKTVIKIFEDSVRKKE
[3]
  binding: binds
[4]
  binding: binds

B3: DHD9-13 fusion, chain 9a-13a (designed binder)
chain: PKEEARELIRKQKELIKEQKKLIKEAKQKSDSRDAERIWKRSREINRESKKINKRIKELIKSGSEGSGSEGSGSTKEDILERQRKIIERAQEIHRRQQEILEELERIIRKPGSSEEAMKRMLKLLEESLRLLKELLELSEESAQLLYEQR
[5]
  binding: binds
[6]
  binding: binds

B4: DHD15-37 fusion, chain 15b-37a (designed binder)
chain: TERKLLERSRRLQEESKRLLDEMAEIMRRIKKLLDDPDSEDIAREIKELLRRLKEIIERNQRIAKEHEYIARERSGPGSGSEGSDSDEHLKKLKTFLENLRRHLDRLDKHIKQLRDILSENPEDERVKDVIDLSERSVRIVKTVIKIFEDSVRKKE
[7]
  binding: binds
[8]
  binding: binds
